Measurements taken from patent publication US20210030673A1, “Method and a Compound for Preventing Mammalian Cancer Cell Proliferation and for Treating Cancer” (Oy Granula Ab Ltd., priority 2019, published 2021).
At least one structure is not confirmed: it was looked up by name or label, or the drawing left a doubt.

Tested on: metastatic prostate cancer (PC-3) cells
Assay: Live-cell imaging of PC-3 proliferation, BA or BOA
Format: cell-based, human
Conditions: 10 uM, 48 h
Protocol: One day prior to the treatment, the cells were counted and plated on 24-well plates (Falcon) and incubated overnight at +37° C. (5% CO2). The following day, the cells were treated betulinic acid (BA) or betulonic acid (BOA) in concentrations of 0, 10, 50, 70, 100, and 150 μM. 1% DMSO was used to control for the effects of the solvent. All samples were made in triplicates. The cells were imaged for 48 h with 2 h intervals (9 images per well) using IncuCyte S3 Live-Cell Analysis System (Essen BioScience).

SMILES: C=C(C)[C@@H]1CC[C@]2(C(=O)O)CC[C@]3(C)[C@H](CC[C@@H]4[C@@]5(C)CC[C@H](O)C(C)(C)[C@@H]5CC[C@]43C)[C@@H]12 [BA, betulinic acid]
- PC-3 proliferation: clearly decreased the proliferation
